The source of these data is article PMC7202230.

The chains behind the UniProt entries cited, without tags or fusion partners.
UniProt P60468: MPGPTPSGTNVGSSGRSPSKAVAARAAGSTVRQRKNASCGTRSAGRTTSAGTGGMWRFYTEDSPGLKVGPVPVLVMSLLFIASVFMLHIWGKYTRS

These are yes or no findings as the source states them, for the method shown. Binding seen in cells or lysates may run through a third protein. A yes stands for co-enrichment or nearness to the bait. Other partners may have been found.

For the assay, the target named is purified recombinant Sec61β full-length, immobilised (UniProt P60468). The assay is described as follows: affinity purification with mass spectrometry; purified recombinant Sec61β covalently coupled to Ultralink Biosupport, pull-down from RRL, elution with Triton X-100, TCA precipitation, SDS-PAGE, in-gel tryptic digestion of the ~38 kDa band, LC-MS/MS; only the target purified.

B1: rabbit SGTB (G1SX57), endogenous (protein, UniProt G1SX57 1-304)
chain: MSSIKHLVYAVIRFLREQSQMDAYTSDEQESLEVAIQCLETVFKISSEDTHLAVPQPLTEMFTNSFCKNDILPLSNSAPEDVGKADQLKDEGNNHMKEENYAAAVDCYTQAIELDPNNAVYYCNRAAAQSKLSHYTDAIKDCEKAIAIDSKYSKAYGRMGLALTAMNKFEEAVTSYQKALDLDPENDSYKSNLKIAEQKLREVSSPTGTGLSFDMASLINNPAFISMAASLMQNPQVQQLMSGMMTNAIGGPAAGVGGLTDLSSLIQAGQQFAQQIQQQNPELIEQLRNHIRSRSFSSSTEEHS
B1: the binding entry was “binds”.
